{
  "source": "patent US11905286B2",
  "about": "“Diazabicyclooctanones as inhibitors of serine beta-lactamases” (priority 2018, dated 2024)",
  "tested_on": "panel of 48 A. baumannii strains (OXA positive clinical isolates)",
  "test": "Cumulative MIC, panel of 48 A. baumannii strains (FIG. 3)",
  "details": "FIG. 3, in the presence of 16 μg/mL of each inhibitor; antibiotic alone or clinical combination",
  "note": "Some of these results come from one statement about several compounds together.",
  "data": [
    {"smiles": "C[C@@H](O)[C@H]1C(=O)N2C(C(=O)O)=C(S[C@@H]3CN[C@H](C(=O)N(C)C)C3)[C@H](C)[C@H]12", "note": "[meropenem, reference compound]", "values": [
      {"measurement": "% of the strains susceptible", "result": "less than 10%"}
    ]}
  ]
}
